Source: article PMC11445578
These are yes or no findings as the source states them, for the method shown. Binding seen in cells or lysates may run through a third protein. Here binding means that the protein was enriched with, or labelled near, the bait; the list need not be complete.

Protein sequences, listed by entry. Tags and fused reporters are not part of them.
UniProt Q9Y5K6: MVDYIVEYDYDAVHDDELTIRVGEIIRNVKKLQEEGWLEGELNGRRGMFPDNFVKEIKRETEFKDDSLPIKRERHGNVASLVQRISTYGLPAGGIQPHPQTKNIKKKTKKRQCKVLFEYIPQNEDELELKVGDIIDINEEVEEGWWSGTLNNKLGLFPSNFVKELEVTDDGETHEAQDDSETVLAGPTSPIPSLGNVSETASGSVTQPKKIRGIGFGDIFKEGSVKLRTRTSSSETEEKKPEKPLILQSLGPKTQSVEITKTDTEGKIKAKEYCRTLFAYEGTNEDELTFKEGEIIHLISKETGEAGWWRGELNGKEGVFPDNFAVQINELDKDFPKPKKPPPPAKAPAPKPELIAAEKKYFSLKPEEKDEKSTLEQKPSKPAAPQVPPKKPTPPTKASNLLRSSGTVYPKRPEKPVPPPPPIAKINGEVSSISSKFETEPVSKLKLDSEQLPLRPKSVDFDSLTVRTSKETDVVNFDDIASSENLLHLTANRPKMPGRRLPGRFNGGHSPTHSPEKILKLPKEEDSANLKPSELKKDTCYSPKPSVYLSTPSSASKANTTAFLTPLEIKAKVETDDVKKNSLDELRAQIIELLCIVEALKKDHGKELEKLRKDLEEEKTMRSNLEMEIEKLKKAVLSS
UniProt Q9C035: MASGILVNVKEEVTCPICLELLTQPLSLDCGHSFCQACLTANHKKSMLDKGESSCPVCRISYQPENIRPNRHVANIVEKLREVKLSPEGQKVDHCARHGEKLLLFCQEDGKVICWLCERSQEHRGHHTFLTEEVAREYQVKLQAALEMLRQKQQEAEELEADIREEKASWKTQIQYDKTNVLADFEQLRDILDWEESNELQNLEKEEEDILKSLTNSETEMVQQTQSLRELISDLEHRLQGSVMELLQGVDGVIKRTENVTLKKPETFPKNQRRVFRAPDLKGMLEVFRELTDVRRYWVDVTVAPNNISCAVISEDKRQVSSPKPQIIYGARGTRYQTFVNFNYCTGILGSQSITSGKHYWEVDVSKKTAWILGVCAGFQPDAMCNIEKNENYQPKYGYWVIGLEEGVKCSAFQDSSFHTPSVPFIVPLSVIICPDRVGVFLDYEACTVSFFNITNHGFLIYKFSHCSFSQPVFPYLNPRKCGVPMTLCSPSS

Target: CD2-associated protein (CD2AP), endogenous (human (endogenous in U87MG and U251)) (UniProt Q9Y5K6)
Assay: affinity purification with mass spectrometry; CD2AP antibody and IgG control used to immunoprecipitate proteins from U87MG cells; SDS-PAGE, in-gel trypsin digestion, timsTOF Pro mass spectrometry

binding: binds
Substance: TRIM5, endogenous (from UniProt Q9C035 1-493)
